One sequence from publication PMC3219604 can be followed below.

Changes are numbered by the printed parent chain. For at least one entry, the source does not settle the construct or the ends of the probe. Tags and fusion partners may be left off the protein sequences shown.

Holding throughout (assay): EMSA
A general note: In EMSA bound probe runs differently from free probe, usually more slowly.

The target in series [1] is T1, OrfAB-GFP GMF36 R37Q/S44N R52Q,S59N (UniProt P51026).
T1 sequence (looked up, limits assumed): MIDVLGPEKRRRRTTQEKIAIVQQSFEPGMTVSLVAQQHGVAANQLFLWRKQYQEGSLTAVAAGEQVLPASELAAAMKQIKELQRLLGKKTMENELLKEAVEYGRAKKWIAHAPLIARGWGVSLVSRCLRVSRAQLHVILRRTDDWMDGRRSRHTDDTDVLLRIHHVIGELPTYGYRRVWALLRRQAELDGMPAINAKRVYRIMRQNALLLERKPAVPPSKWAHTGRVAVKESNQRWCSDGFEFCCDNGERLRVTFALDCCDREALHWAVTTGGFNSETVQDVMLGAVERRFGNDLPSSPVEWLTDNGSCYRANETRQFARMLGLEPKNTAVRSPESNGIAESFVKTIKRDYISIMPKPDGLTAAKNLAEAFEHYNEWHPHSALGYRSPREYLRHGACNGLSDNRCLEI
The conditions noted are these: 20 mM Tris-Cl pH 8.0, 1 mM EDTA, 5 ug/mL calf thymus DNA, 10 nM DNA, 0.11-0.13 uM protein, 30 min at 20 C; gels at 4 C; recombinant protein; protein details: 6xHis, C-terminal GFPuv; label: 5'-32P upper strand.

Series [2] deals with T2, OrfAB-GFP GMF4 A42T A57T (UniProt P51026).
T2 sequence (looked up, limits assumed): T1 sequence (looked up, limits assumed) with Q37R, A42T, N44S
The conditions noted are these: 20 mM Tris-Cl pH 8.0, 1 mM EDTA, 5 ug/mL calf thymus DNA, 10 nM DNA, 0.11-0.13 uM protein, 30 min at 20 C; gels at 4 C; recombinant protein; protein details: 6xHis, C-terminal GFPuv; label: 5'-32P upper strand.

For series [3], the target named is T3, OrfAB-GFP GMF37 W49R W64R (UniProt P51026).
T3 sequence (looked up, limits assumed): T1 sequence (looked up, limits assumed) with Q37R, N44S, W49R
The conditions noted are these: 20 mM Tris-Cl pH 8.0, 1 mM EDTA, 5 ug/mL calf thymus DNA, 10 nM DNA, 0.11-0.13 uM protein, 30 min at 20 C; gels at 4 C; recombinant protein; protein details: 6xHis, C-terminal GFPuv; label: 5'-32P upper strand.

The target of series [4] is T4, OrfAB-GFP GMF38 A341T A356T (UniProt P51026).
T4 sequence (looked up, limits assumed): T1 sequence (looked up, limits assumed) with Q37R, N44S, A341T
The conditions noted are these: 20 mM Tris-Cl pH 8.0, 1 mM EDTA, 5 ug/mL calf thymus DNA, 10 nM DNA, 0.11-0.13 uM protein, 30 min at 20 C; gels at 4 C; recombinant protein; protein details: 6xHis, C-terminal GFPuv; label: 5'-32P upper strand.

In series [5] the target is T5, OrfAB-GFP GMF106 L83V L98V (UniProt P51026).
T5 sequence (looked up, limits assumed): T1 sequence (looked up, limits assumed) with Q37R, N44S, L68V, L83V
The conditions noted are these: 20 mM Tris-Cl pH 8.0, 1 mM EDTA, 5 ug/mL calf thymus DNA, 10 nM DNA, 0.11-0.13 uM protein, 30 min at 20 C; gels at 4 C; recombinant protein; protein details: 6xHis, C-terminal GFPuv; label: 5'-32P upper strand; counted as no binding.

The target in series [6] is T6, OrfAB-GFP GMF6 Q79L Q94L (UniProt P51026).
T6 sequence (looked up, limits assumed): T1 sequence (looked up, limits assumed) with Q37R, N44S, Q79L
The conditions noted are these: 20 mM Tris-Cl pH 8.0, 1 mM EDTA, 5 ug/mL calf thymus DNA, 10 nM DNA, 0.11-0.13 uM protein, 30 min at 20 C; gels at 4 C; recombinant protein; protein details: 6xHis, C-terminal GFPuv; label: 5'-32P upper strand.

As to “GGATCCTTAAGTGATAACAGATGTCTGGAAATATAGGGGCAAATCCAGCG (double strand) [IRR 50-mer]”, the binding signal (binding score (0-5)) in series [1] turned out to be 2; in series [2], 5; in series [3], 5; in series [4], 5; in series [5], 0; in series [6] it was 2.5.
